Residue numbers refer to the chain shown, from its start. These are yes or no findings as the source states them, for the method shown. Some binding calls cover weakened binding; strength is not graded here.
T1: RANKL expressed on the surface of 293 cells (UniProt O14788)
T1 sequence (looked up): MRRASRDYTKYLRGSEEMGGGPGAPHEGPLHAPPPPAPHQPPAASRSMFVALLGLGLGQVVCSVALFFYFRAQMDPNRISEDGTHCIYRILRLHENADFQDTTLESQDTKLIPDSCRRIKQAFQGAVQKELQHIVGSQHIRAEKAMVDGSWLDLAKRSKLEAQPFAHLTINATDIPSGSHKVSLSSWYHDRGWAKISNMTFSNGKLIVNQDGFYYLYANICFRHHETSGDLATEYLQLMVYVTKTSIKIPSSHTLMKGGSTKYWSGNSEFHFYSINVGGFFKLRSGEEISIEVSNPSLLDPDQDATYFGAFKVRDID

B1: clone EBI-51-23 rabbit anti-RANKL antibody (antibody, V domains shown)
VH: QSVKESEGGLFKPTDTLTLTCTVSGFSLSIYEISWVRQAPGKELEWIGYIGVGGVTYYANWAKSRSTITRNTNQKMVALKMTSLTAADTATYFCARGYNPFDLWGPGTLVTVSS
VL: DMTQTPASVEVAVGGTVTINCQASQNIGSNLAWYQQKPGQPPKLLIYKASTLASGVPSRLKGSGSGTEFTLTISGVQCDDAATYYCQQGYTTGNVDNPFGGGTEVVVK
B2: clone 147 rabbit anti-RANKL antibody (antibody, V domains shown)
VH: QSVEESGGRLVTPGTPQTLTCTVSGFSLSTDVVSWVRQAPGKGLEWIGYTWNGGATYYASWAKGRFTFSKTSTTVDLKITSPTTEDTATYFCARGYNGMDPWGPGTLVTVSS
VL: B1 VL with N20K, Y47S, L60F, T72A, G75D, V76L, Q77E, D79A, G93K, D96V
B3: clone 476 rabbit anti-RANKL antibody (antibody, V domains shown)
VH: QSLEESGGGLVQPEGSPTLTCTAYLIDFSRYGYMCWVRQAPGKGLEWIGCIHAGRSGRTYYANWAKGRFTISKTSSTTVTLQMTSLTAADTATYFCAKSGDSYVGYFALWGPGTLVTVSS
VL: DIVMTQTPASVEAAVGGTVTIKCQASENIYNYLSWYQQKPGQPPKLLIYEASKLASGVSSRFKGSGSGTEFTLTISDLECADAATYYCQSYYDVTSHSYDNPFGGGTEVVVS
B4: clone EBI-51-1 rabbit anti-RANKL antibody (antibody, V domains shown)
VH: QEQLEESGGGLVKPEGSLTLTCTASGFDLSTYYYMCWVRQAPGKGLEWIACIYTGRASTYYATWAKGRFTISKTSSTTVTLQMTSLTAADTATFFCASKAGDIWYYGMDLWGPGTLVTVSS
VL: DMTQTPASVSEPVGGTVTIKCQASQNIGSNLAWYQQKPGQRPKLLIYRASTLASGVSSRFKGSGSGTQFTLTISDLECADAATYYCQQGYSAGNVDNNTFGGGTEVVVK
B5: clone EBI-51-2 rabbit anti-RANKL antibody (antibody, V domains shown)
VH: QSLEESGGRLVTPGTPLTLTCTASGFTISTDVISWVRQAPGKGLEWIGYTWSGGSTYYANWAKGRFTLSKTSSTTVDLKITSPTIEDTATYFCARGFNPFDPWGPGTLVTVSS
VL: DMIQTPASVSEPVGGTVTIVCQASQNIGSNFAWYQQKPGQPPKLLIYRASTLASGVSSRFKGSGFGTQFTLTISDLECADAATYYCQQGYSAGNVDNNFGGGTEVVVK
B6: clone EBI-51-4 rabbit anti-RANKL antibody (antibody, V domains shown)
VH: QSVEESGGRLVKPGESLTLTCTASGFSLSSDVISWVRQAPGKGLEWIGYGWSGGPTYYANWAKGRFTISKTSSTTVDLKITSPTTEDTATYFCARGFNPFDPWGPGTLVTVSS
VL: B5 VL with I3T, V20K, F31L, P41R, F65S, N98S
B7: clone 68 rabbit anti-RANKL antibody (antibody, V domains shown)
VH: QEQLKESGGGLVKPDESLTLTCTASGFSLSSNGMSWARQAPGKGLEWIGYIYAGSSPYYANWAKGRFTISKTSSTTVDLKVTSLTTEDTATYFCARHASGGGWYLAIWGPGTLVTVSL
VL: DMIQTPASVEVAVGGTVTIGCQASQSIGSNLGWYQQKPGQPPKLLIYSASTLASGVSSRFKGSGSGTEFTLTISDVECDDAATYYCQQAYSVSNVDNAFGGGTEVVVK
B8: clone 174 rabbit anti-RANKL antibody (antibody, V domains shown)
VH: QEQLQESGGGLITPGGTLTLTCTASGFSFNRNALSWVRQAPGKGLEWIGYIYSGGSPYYANWAKGRFNVSRTSTTVDLRMTSLTTEDTATYFCARHVSGGGWYLDIWGPGTLVTVSL
VL: B7 VL with G20N, S26N, G32A, S48G, A49T, S65F, E68Q, L71F, D79T, V92I
B9: clone 565 rabbit anti-RANKL antibody (antibody, V domains shown)
VH: QEDLKESGGGLITPGGTLTLTCTGSGFSLSSDGMSWVRQAPGKGLEWIGYIYSGSSPYYANWAKGRFTISKTSSTTVDLKMTSLTTEDTATYFCARHLSGGGWYLDIWGPGTLVTVSL
VL: DMIQTPASVSEPVGGTVTINCQASQNIGSNLAWYQQKPGQPSKLLIYKASTLASGVPSRFKGSGSGTDFTLTISDLECADAATYYCQQAYTISNVDNAFGGGTEVVVK

Each binder was assayed against T1, RANKL expressed on the surface of 293 cells (assay: flow cytometry, RANKL-transfected 293 cells).

binding	Binder
binds	B1
binds	B2
binds	B3
binds	B4
binds	B5
binds	B6
binds	B7
binds	B8
binds	B9

Reference: patent publication US20160032001A1 (APEXIGEN, published 2016)
